The list shows only some results of the screen, not a fair sample: it is rich in T/C values a quarter to a half above the control, in often repeated tests (any T/C) and in doses without a T/C. Other doses and runs of a compound stand elsewhere. T/C is the treated group as % of the vehicle group. Some entries give survivors of the animals treated and no T/C: the source holds a T/C of zero for them, seemingly a mark for toxic or unscored doses. Some survivor counts are full or nearly so, which does not show that the dose was tolerated: survival well below the control is almost never listed, so the zero probably covers shortened survival too. Counts of survivors are from the toxicity check (mostly the fifth day) where no day follows; animals may have died later. Schedules are NCI's codes, taken here to give the interval after Q, in days (D) or hours (H), and the number of doses after X. Where survival is the endpoint, this PubChem deposit counts one and a half times the control or more as active, and values a quarter to a half above the control carry no call in these data; other NCI protocols may use other cut-offs. Some entries were tested several times; the results are listed from low to high.

For 16 molecules, T/C and survivor count results are on record in PubChem BioAssay AID190 (DTP/NCI, 2004).

For the test, the system named is AKR/Lw mice, AKR lymphoma ip, median survival T/C. The test is described as follows: NCI In Vivo Anticancer Drug Screen. Data for tumor model Lymphoma AKR (Transplanted) (intraperitoneal) in AKR/Lw mice. As to conditions: T/C endpoint: median survival time, higher T/C = longer survival. On the procedure:
The antitumor activity of compounds was measured in mice bearing transplantable tumors. Survival or tumor size were measured and the results are expressed as the measurement made in the treated group (T) divided by the measurement made in the vehicle treated control group (C). The tumor model used in this assay is Lymphoma AKR (Transplanted) (intraperitoneal) in AKR/Lw mice

[1] abbreviates: dose: 200.0 mg/kg/injection, schedule: Q01DX001 (ip), vehicle: saline.
The mark [2] stands for this setting: dose: 400.0 mg/kg/injection, schedule: Q01DX001 (ip), vehicle: saline.
The mark [3] stands for this setting: dose: 100.0 mg/kg/injection, schedule: Q01DX001 (ip), vehicle: saline.
Setting [4] is: dose: 100.0 mg/kg/injection, schedule: Q01DX001 (ip), vehicle: Klucel (hydroxypropylcellulose) (HPC).
[5] abbreviates: dose: 400.0 mg/kg/injection, schedule: Q01DX001 (ip), vehicle: Klucel (hydroxypropylcellulose) (HPC).
Where [6] appears, read: dose: 200.0 mg/kg/injection, schedule: Q01DX001 (ip), vehicle: Klucel (hydroxypropylcellulose) (HPC).

As to `NC(=S)N/N=C/c1ccccn1`, the T/C is, setting by setting: (dose: 1.0 mg/kg/injection, schedule: Q01DX009 (ip), vehicle: saline with Tween-80) 128 % of control; (dose: 1.75 mg/kg/injection, schedule: Q01DX009 (ip), vehicle: saline with Tween-80) 125 % of control; (dose: 2.5 mg/kg/injection, schedule: Q01DX009 (ip), vehicle: saline with Tween-80) 137 and 141 % of control; (dose: 8.0 mg/kg/injection, schedule: Q04DX003 (ip), vehicle: saline with Tween-80) 126 % of control. The survivor count is on record as 7 of 9 (dose: 3.5 mg/kg/injection, schedule: Q01DX009 (ip), vehicle: saline with Tween-80); 10 of 10 (dose: 4.0 mg/kg/injection, schedule: Q03HX032 (ip), vehicle: saline with Tween-80); 1 of 10 (dose: 8.0 mg/kg/injection, schedule: Q03HX032 (ip), vehicle: saline with Tween-80); 8 of 10 (dose: 10.0 mg/kg/injection, schedule: Q01DX009 (ip), vehicle: saline with Tween-80); 5 of 10 (dose: 16.0 mg/kg/injection, schedule: Q04DX003 (ip), vehicle: saline with Tween-80); 2 of 10 (dose: 32.0 mg/kg/injection, schedule: Q04DX003 (ip), vehicle: saline with Tween-80).
Take `COc1ccccc1N1C(N)=NC(N)=NC1(C)C`: the survivor count runs as follows: (dose: 16.0 mg/kg/injection, schedule: Q04DX003 (ip), vehicle: saline) 10 of 10; under setting [1], 0 of 10; under setting [2], 0 of 10.
As for `COC(=O)c1ccc(NCC(C)(C)N)cc1`, the survivor count was 0 of 10 under setting [3], 0 of 10 under setting [1] and 0 of 10 under setting [2].
With `CC(C)c1c[nH]c(=O)[nH]c1=O`, under setting [4], the survivor count is on record as 9 of 10.
Take `CCOC(=O)/C(C(C)=O)=C(/O)c1ccc(OC(F)(F)C(F)Cl)cc1OC(F)(F)C(F)Cl.CCOC(=O)/C(C(C)=O)=C(/O)c1ccc(OC(F)(F)C(F)Cl)cc1OC(F)(F)C(F)Cl.[Cu]` (stereo unspecified): the survivor count under setting [5] is 9 of 10.
In the case of `COc1cc([C@@H]2c3cc4c(cc3C[C@H]3COC(=O)[C@@H]32)OCO4)cc(OC)c1OC`, the survivor count is 7 of 10 (dose: 10.0 mg/kg/injection, schedule: Q01DX009 (ip), vehicle: Klucel (hydroxypropylcellulose) (HPC)); 5 of 10 (dose: 20.0 mg/kg/injection, schedule: Q01DX009 (ip), vehicle: Klucel (hydroxypropylcellulose) (HPC)); 1 of 10 (dose: 40.0 mg/kg/injection, schedule: Q01DX009 (ip), vehicle: Klucel (hydroxypropylcellulose) (HPC)).
As to `COc1cc2ccc(CCNCc3ccccc3)cc2cc1OC`, the survivor count is, setting by setting: under setting [1], 2 of 10; under setting [2], 0 of 10.
`COc1cccc2c1C(=O)c1c(O)c3c(c(O)c1C2=O)C[C@@](O)(C(=O)CO)C[C@@H]3OC1CC(N)C(O)C(C)O1` (stereo partly specified): the T/C runs as follows: (dose: 0.25 mg/kg/injection, schedule: Q01DX006 (sc), vehicle: saline) 135 % of control; (dose: 0.7 mg/kg/injection, schedule: Q04DX003 (sc), vehicle: saline, evaluated on day 5) 127 % of control; (dose: 0.7 mg/kg/injection, schedule: Q04DX003 (sc), vehicle: saline, evaluated on day 60) 127 % of control; (dose: 1.0 mg/kg/injection, schedule: Q01DX006 (sc), vehicle: saline) 135 % of control; (dose: 1.3 mg/kg/injection, schedule: Q04DX003 (sc), vehicle: saline, evaluated on day 5) 112 and 128 % of control; (dose: 1.3 mg/kg/injection, schedule: Q04DX003 (sc), vehicle: saline, evaluated on day 60) 112 and 128 % of control. Also, the T/C is, setting by setting: (dose: 2.0 mg/kg/injection, schedule: Q04DX003 (sc), vehicle: saline, evaluated on day 5) 105 and 120 % of control; (dose: 2.0 mg/kg/injection, schedule: Q04DX003 (sc), vehicle: saline, evaluated on day 60) 105 and 120 % of control. For the same molecule, the survivor count (dose: 2.0 mg/kg/injection, schedule: Q01DX006 (ip), vehicle: saline) was 10 of 10.
Take `NC(=O)C(Br)CBr` (stereo unspecified): the survivor count under setting [2] is reported as 0 of 10.
For the molecule `CC1(C)N=C(N)N=C(N)N1c1cc(Cl)ccc1Cl`, the survivor count is, setting by setting: under setting [3], 6 of 10; under setting [1], 0 of 10; under setting [2], 0 of 10.
`CC[N+]1=NC2CCCC(C2)C1` (stereo unspecified): the survivor count under setting [2] was 4 of 10.
Turning to `COc1ccc(-n2c(=S)[nH]c3ccccc3c2=O)cc1`, the survivor count (dose: 300.0 mg/kg/injection, schedule: Q04DX003 (ip), vehicle: Klucel (hydroxypropylcellulose) (HPC)) is 10 of 10.
In the case of `Cc1cnc2c(N)[nH]nc2n1`, the survivor count is listed as 5 of 10 under setting [4], 0 of 10 under setting [6] and 10 of 10 under setting [5].
For the molecule `Cc1cccc(C)c1NC(=S)N(C)C`, the survivor count is given as 10 of 10 (dose: 12.5 mg/kg/injection, schedule: Q04DX003 (ip), vehicle: Klucel (hydroxypropylcellulose) (HPC)); 10 of 10 (dose: 25.0 mg/kg/injection, schedule: Q04DX003 (ip), vehicle: Klucel (hydroxypropylcellulose) (HPC)); 10 of 10 (dose: 50.0 mg/kg/injection, schedule: Q04DX003 (ip), vehicle: Klucel (hydroxypropylcellulose) (HPC)); 8 of 10 (dose: 100.0 mg/kg/injection, schedule: Q04DX003 (ip), vehicle: Klucel (hydroxypropylcellulose) (HPC)); 2 of 10 under setting [6].
On to `CN(C)c1nc(N(C)C)nc(N(C)C)n1`, for which the survivor count was 10 of 10 (dose: 320.0 mg/kg/injection, schedule: Q04DX003 (ip), vehicle: Klucel (hydroxypropylcellulose) (HPC)); 10 of 10 (dose: 640.0 mg/kg/injection, schedule: Q04DX003 (ip), vehicle: Klucel (hydroxypropylcellulose) (HPC)); 9 of 10 (dose: 1280.0 mg/kg/injection, schedule: Q04DX003 (ip), vehicle: Klucel (hydroxypropylcellulose) (HPC)).
With `Clc1nnc(Nc2ccccc2)c2ccccc12`, the survivor count reads like this: (dose: 200.0 mg/kg/injection, schedule: Q04DX003 (ip), vehicle: saline) 10 of 10; (dose: 400.0 mg/kg/injection, schedule: Q04DX003 (ip), vehicle: saline) 10 of 10.
